Results reported in PMC9258208.
These are yes or no findings as the source states them, for the method shown. Binding seen in cells or lysates may run through a third protein. Some binding calls cover weakened binding; strength is not graded here. For some assays here: Where a sequence is shown, tags or fusion partners need not be part of it.

What was measured:
Flag-Smad4, Q13485 = target: T1, Flag-Smad4, Q13485; experiment: co-IP; two-step immunoprecipitation: Flag-Smad4 complex from transfected MDA-MB-231 cells (5 ng/ml TGF-β, 2 h), eluted with M2 peptide, then precipitated with anti-Smad3 antibody; conditions: remark: other sources report otherwise
T1 chain: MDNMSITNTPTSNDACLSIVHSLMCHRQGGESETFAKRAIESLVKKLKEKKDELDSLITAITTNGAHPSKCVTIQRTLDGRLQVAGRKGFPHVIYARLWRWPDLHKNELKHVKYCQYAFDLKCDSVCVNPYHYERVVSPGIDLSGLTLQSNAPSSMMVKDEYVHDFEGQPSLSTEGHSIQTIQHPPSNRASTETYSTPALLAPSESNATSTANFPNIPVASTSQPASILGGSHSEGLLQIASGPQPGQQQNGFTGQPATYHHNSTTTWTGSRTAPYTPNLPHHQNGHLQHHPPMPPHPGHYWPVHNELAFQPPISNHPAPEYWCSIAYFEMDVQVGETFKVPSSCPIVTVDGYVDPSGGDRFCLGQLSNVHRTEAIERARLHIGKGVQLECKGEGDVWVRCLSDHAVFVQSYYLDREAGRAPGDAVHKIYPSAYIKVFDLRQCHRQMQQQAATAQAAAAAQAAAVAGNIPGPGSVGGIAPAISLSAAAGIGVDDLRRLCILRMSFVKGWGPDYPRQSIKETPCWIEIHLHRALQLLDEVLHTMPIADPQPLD

[1] = target: T2, Smad4 (human (endogenous in MDA-MB-231 and M10)), Q13485; experiment: co-IP; endogenous Smad3 and Smad4; MDA-MB-231 cells stably expressing Smyca shRNAs or Smyca constructs, or M10 cells stably expressing Smyca; with or without 5 ng/ml TGF-β for 1 h; RIPA lysates; conditions: remark: other sources report otherwise
T2 chain: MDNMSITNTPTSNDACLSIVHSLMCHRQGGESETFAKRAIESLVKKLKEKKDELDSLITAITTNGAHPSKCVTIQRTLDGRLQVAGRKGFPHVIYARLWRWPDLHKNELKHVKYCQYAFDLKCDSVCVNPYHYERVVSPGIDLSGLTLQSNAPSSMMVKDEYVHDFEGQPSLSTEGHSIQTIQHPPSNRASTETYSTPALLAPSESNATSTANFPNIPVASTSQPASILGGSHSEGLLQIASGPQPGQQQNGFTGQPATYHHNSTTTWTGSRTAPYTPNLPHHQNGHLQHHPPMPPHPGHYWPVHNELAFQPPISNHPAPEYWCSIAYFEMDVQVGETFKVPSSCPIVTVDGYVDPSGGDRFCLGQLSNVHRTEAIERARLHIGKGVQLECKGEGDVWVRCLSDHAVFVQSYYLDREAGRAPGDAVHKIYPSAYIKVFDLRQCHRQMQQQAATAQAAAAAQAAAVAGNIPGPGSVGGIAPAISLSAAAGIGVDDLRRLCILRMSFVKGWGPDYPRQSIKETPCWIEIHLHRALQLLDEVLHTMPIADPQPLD

binding (Flag-Smad4, Q13485): binds
binding [1]: binds
B1: Smad3, P84022 1-425 (protein)
chain: MSSILPFTPPIVKRLLGWKKGEQNGQEEKWCEKAVKSLVKKLKKTGQLDELEKAITTQNVNTKCITIPRSLDGRLQVSHRKGLPHVIYCRLWRWPDLHSHHELRAMELCEFAFNMKKDEVCVNPYHYQRVETPVLPPVLVPRHTEIPAEFPPLDDYSHSIPENTNFPAGIEPQSNIPETPPPGYLSEDGETSDHQMNHSMDAGSPNLSPNPMSPAHNNLDLQPVTYCEPAFWCSISYYELNQRVGETFHASQPSMTVDGFTDPSNSERFCLGLLSNVNRNAAVELTRRHIGRGVRLYYIGGEVFAECLSDSAIFVQSPNCNQRYGWHPATVCKIPPGCNLKIFNNQEFAALLAQSVNQGFEAVYQLTRMCTIRMSFVKGWGAEYRRQTVTSTPCWIELHLNGPLQWLDKVLTQMGSPSIRCSSVS
